Results: PMC10654211, “GTPBP8 is required for mitoribosomal biogenesis and mitochondrial translation” (Cellular and Molecular Life Sciences: CMLS, 2023)
Results are given in words; binding and its absence hold for the method and conditions named. Binding seen in cells or lysates may run through a third protein. These calls come from enrichment with a bait or labelling near it, and not all partners need be listed.

Chains of the proteins cited; added tags and fusions are not shown.
UniProt Q8N3Z3: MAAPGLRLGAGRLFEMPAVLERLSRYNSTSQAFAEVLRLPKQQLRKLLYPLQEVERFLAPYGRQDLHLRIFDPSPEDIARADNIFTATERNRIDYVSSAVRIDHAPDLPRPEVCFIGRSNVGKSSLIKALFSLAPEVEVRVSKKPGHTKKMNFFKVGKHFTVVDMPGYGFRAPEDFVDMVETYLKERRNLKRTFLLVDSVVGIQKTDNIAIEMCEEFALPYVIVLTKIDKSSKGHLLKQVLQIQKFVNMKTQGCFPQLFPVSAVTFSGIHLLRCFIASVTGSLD

Biological target: MAC-tagged GTPBP8 (human) (UniProt Q8N3Z3)
Test: proximity labelling; BioID: MAC-tagged GTPBP8 in U2OS cells, 50 uM biotin for 24 h, lysate on Strep-Tactin matrix, mass spectrometry; filtered against MAC-tagged GFP and the CRAPome

B1: YARS2 (enzyme, UniProt Q9Y2Z4 17-477)
chain: TLNLSVLLPLGLRKAHSGAQGLLAAQKARGLFKDFFPETGTKIELPELFDRGTASFPQTIYCGFDPTADSLHVGHLLALLGLFHLQRAGHNVIALVGGATARLGDPSGRTKEREALETERVRANARALRLGLEALAANHQQLFTDGRSWGSFTVLDNSAWYQKQHLVDFLAAVGGHFRMGTLLSRQSVQLRLKSPEGMSLAEFFYQVLQAYDFYYLFQRYGCRVQLGGSDQLGNIMSGYEFINKLTGEDVFGITVPLITSTTGAKLGKSAGNAVWLNRDKTSPFELYQFFVRQPDDSVERYLKLFTFLPLPEIDHIMQLHVKEPERRGPQKRLAAEVTKLVHGREGLDSAKRCTQALYHSSIDALEVMSDQELKELFKEAPFSEFFLDPGTSVLDTCRKANAIPDGPRGYRMITEGGVSINHQQVTNPESVLIVGQHILKNGLSLLKIGKRNFYIIKWLQL
- binding: binds

B2: IARS2 (enzyme, UniProt Q9NSE4 49-1012)
chain: SNHQPNSNSGRYRDTVLLPQTSFPMKLLGRQQPDTELEIQQKCGFSELYSWQRERKVKTEFCLHDGPPYANGDPHVGHALNKILKDIANRFHMMNGSKIHFVPGWDCHGLPIEIKVLSELGREAQNLSAMEIRKKARSFAKAAIEKQKSAFIRWGIMADWNNCYYTFDGKYEAKQLRTFYQMYDKGLVYRSYKPVFWSPSSRTALAEAELEYNPEHVSRSIYVKFPLLKPSPKLASLIDGSSPVSILVWTTQPWTIPANEAVCYMPESKYAVVKCSKSGDLYVLAADKVASVASTLETTFETISTLSGVDLENGTCSHPLIPDKASPLLPANHVTMAKGTGLVHTAPAHGMEDYGVASQHNLPMDCLVDEDGVFTDVAGPELQNKAVLEEGTDVVIKMLQTAKNLLKEEKLVHSYPYDWRTKKPVVIRASKQWFINITDIKTAAKELLKKVKFIPGSALNGMVEMMDRRPYWCISRQRVWGVPIPVFHHKTKDEYLINSQTTEHIVKLVEQHGSDIWWTLPPEQLLPKEVLSEVGGPDALEYVPGQDILDIWFDSGTSWSYVLPGPDQRADLYLEGKDQLGGWFQSSLLTSVAARKRAPYKTVIVHGFTLGEKGEKMSKSLGNVIHPDVVVNGGQDQSKEPPYGADVLRWWVADSNVFTEVAIGPSVLNAARDDISKLRNTLRFLLGNVADFNPETDSIPVNDMYVIDQYMLHLLQDLANKITELYKQYDFGKVVRLLRTFYTRELSNFYFSIIKDRLYCEKENDPKRRSCQTALVEILDVIVRSFAPILPHLAEEVFQHIPYIKEPKSVFRTGWISTSSIWKKPGLEEAVESACAMRDSFLGSIPGKNAAEYKVITVIEPGLLFEIIEMLQSEETSSTSQLNELMMASESTLLAQEPREMTADVIELKGKFLINLEGGDIREESSYKVIVMPTTKEKCPRCWKYTAESSDTLCPRCAEVVSGK
- binding: binds
